{
  "source": "paper PMC12843137",
  "about": "“Fine-Tuning Side Chain Substitutions: Impacts on the Lipophilicity–Solubility–Permeability Interplay in Macrocyclic Peptides” (Marine Drugs, 2025)",
  "assay": "Caco-2 cell permeability study",
  "type": "in vitro ADME",
  "conditions": "human, pH 7.4, Caco-2, 5 μM",
  "from_the_text": "One of the physicochemical quantities that mirrors the interaction of a compound with the cell membrane is permeability. Traditionally, measuring permeability with the PAMPA model provides estimates of passive permeability across a model membrane. […] Therefore, we measure the cell permeability of the six compounds using Caco-2 cells, so that the apical to basolateral (A to B) and basolateral to apical (B to A) permeabilities, and thereby the efflux ratio, can be determined. Three commercial drugs (Table 2) are used as standard compounds to establish and validate our in-house assay.\nFor Caco-2 cells (originally obtained from the American Type Culture Collection; ATCC, Manassas, VA, USA), 50 μL and […] of cell culture medium are added to each well of the Transwell insert and reservoir, respectively. And then the HTS transwell plates are incubated at 37 °C, 5% CO2 for 1 h before cell seeding. Caco-2 cells are diluted to 6.86 × 10^5 cells/mL with culture medium and 50 μL of cell suspension is dispensed into the filter well of the 96-well HTS Transwell plate. Cells are cultivated for 14–18 days in a cell culture incubator at 37 °C, 5% CO2, 95% relative humidity. […]\ndilution factor is changed according to the log D value and the LC-MS signal response. The samples are evaluated by LC-MS/MS analysis. […]",
  "data": [
    {"compound": "CC(C)NCC(O)COc1ccc(CC(N)=O)cc1", "note": "(centres unmarked) [Atenolol, reference compound]", "values": [
      {"measurement": "Papp A→B at 2 h, 5 µM", "setting": "apical to basolateral", "value": 0.52, "unit": "×10⁻⁶ cm/s"},
      {"measurement": "Papp B→A at 2 h, 5 µM", "setting": "basolateral to apical", "value": 0.67, "unit": "×10⁻⁶ cm/s"}
    ]}
  ]
}
